Measured data: PubChem BioAssay AID1159578 (Peter MacCallum Cancer Centre, 2015)
Here is an unselected part of about 18,000 deposited reagents. About 1,030 of all reagents (5.7%) count as active. 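Inactive calls also include pools with fewer than 3300 nuclei, whose migration was not assessed.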 Raw values vary from plate to plate and are shown uncorrected. Further read-outs or replicates are left out here.

Purpose: 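siRNA pools altering how lymphatic endothelial cells close a scratch wound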 (primary screen)
System: human lymphatic endothelial cells
Knock-down reagent: siRNA pool against human genes, 40 nM
Timing: 48 h after transfection
Detection: 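High-content imaging of dye-stained cells in a scratch assay measures filled wound area and nuclei per well; duplicate means given as ratio to mock and robust z-score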
Direction: migration robust z-score: higher = faster migration into the scratch; nuclei per well: higher = more cells in the well
Active means: 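Migration changed when robust z exceeds 2 or falls below -2 and mean nuclei number is at least 3300; otherwise not called changed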
Calls: active = migration changed; inactive = no migration change, or too few cells

| gene | migration robust z-score | nuclei per well, duplicate mean | Call |
| --- | --- | --- | --- |
| USP7 | -0.03 | 5734 | inactive |
| LAPTM5 | 1.14 | 4490 | inactive |
| RNF38 | 0.26 | 5399 | inactive |
| VCP | -0.58 | 6022 | inactive |
| CLN3 | -0.62 | 5555 | inactive |
| KATNIP | -2.82 | 4766 | active |
| SCGB1D1 | 0.58 | 5188 | inactive |
| MYBBP1A | -0.78 | 5307 | inactive |
| EIF3I | -3.01 | 5256 | active |
| GYS2 | 1.61 | 5812 | inactive |
| SFTPD | -0.1 | 4818 | inactive |
| TMEM156 | -0.22 | 6984 | inactive |
| OR4C12 | -0.36 | 4096 | inactive |
| SELENOS | -0.39 | 4879 | inactive |
| CDO1 | 0.26 | 7481 | inactive |
| KLHL25 | -2.31 | 6876 | active |
| RAD54L2 | 1.74 | 6721 | inactive |
| HDGFL2 | -0.96 | 5466 | inactive |
| PEX26 | 0.84 | 5746 | inactive |
| FAM81A | 0.8 | 7850 | inactive |
| MEGF8 | -0.79 | 6689 | inactive |
| CRYBA4 | 0.26 | 5758 | inactive |
| GLRX | -0.52 | 4728 | inactive |
| POLG | 0.05 | 4408 | inactive |
| ZBTB37 | -0.54 | 5784 | inactive |
| CEP55 | 2.19 | 5872 | active |
| PPP1R16A | -0.75 | 5996 | inactive |
| MTA2 | -0.74 | 4812 | inactive |
| LIPG | -0.9 | 7248 | inactive |
| ATXN2 | 0.17 | 5336 | inactive |

7 entries already listed, ordered by “nuclei per well, duplicate mean”, low to high.
| gene | migration robust z-score | nuclei per well, duplicate mean | Call |
| --- | --- | --- | --- |
| HDGFL2 | -0.96 | 5466 | inactive |
| PEX26 | 0.84 | 5746 | inactive |
| MEGF8 | -0.79 | 6689 | inactive |
| RAD54L2 | 1.74 | 6721 | inactive |
| KLHL25 | -2.31 | 6876 | active |
| CDO1 | 0.26 | 7481 | inactive |
| FAM81A | 0.8 | 7850 | inactive |

The list goes on.
| gene | migration robust z-score | nuclei per well, duplicate mean | Call |
| --- | --- | --- | --- |
| FAAH | 0.2 | 5250 | inactive |
| SALL2 | -0.22 | 5258 | inactive |
| ACAT2 | -0.84 | 5702 | inactive |
| ZNF767P | -1.44 | 3819 | inactive |
| TYW3 | -1.16 | 5812 | inactive |
| RAMP2 | 0.83 | 5202 | inactive |
| RCVRN | 0.32 | 6586 | inactive |
| SACK1G | 0.7 | 5329 | inactive |
| COL6A1 | -1.83 | 4432 | inactive |
| CERCAM | 0.8 | 6762 | inactive |
| SPACA3 | 0.8 | 4613 | inactive |
| CSF1 | 0.02 | 6098 | inactive |
| PIGF | 0.24 | 5298 | inactive |
| SYNE3 | -1.36 | 4314 | inactive |
| MYH3 | 1.43 | 5702 | inactive |
| TMSB15A | 1.19 | 4006 | inactive |
| HMG20A | 1.25 | 5154 | inactive |
| ADGRL1 | -0.29 | 5724 | inactive |
| PECR | 0.94 | 4622 | inactive |
| COQ3 | 1.53 | 5380 | inactive |
| SPOCK3 | 0.38 | 6108 | inactive |
| PIP5K1A | -2.08 | 4346 | active |
| KRT18 | 0.08 | 4201 | inactive |
| NPAS1 | 2.02 | 6027 | active |
| FTO | -0.22 | 5300 | inactive |
| MANF | -0.53 | 5836 | inactive |
| MPI | -0.26 | 4896 | inactive |
| LOX | 1.01 | 6173 | inactive |
| STAT2 | -0.26 | 5362 | inactive |
| CALU | 0.38 | 5242 | inactive |
| ULK4 | 0.24 | 4402 | inactive |
| RCAN2 | -1.02 | 5102 | inactive |
| DDX19A | -0.44 | 6389 | inactive |
| ANO3 | 0.75 | 6694 | inactive |
| HOXA13 | -0.15 | 1076 | inactive |
| UBE2QL1 | -0.52 | 4793 | inactive |
| CLEC3B | -0.86 | 5478 | inactive |
| C1R | -1.56 | 5398 | inactive |
| C14orf180 | 0.22 | 5958 | inactive |
| DCX | 0 | 6237 | inactive |
| GOLGA7 | 0.54 | 6079 | inactive |
| LYPLA2 | -4.09 | 6261 | active |
| SPINT1 | -0.18 | 5128 | inactive |
